Assay results published in paper PMC5065529, “Wnt Signalosome Assembly by DEP Domain Swapping of Dishevelled” (Molecular Cell, 2016).
These are yes or no findings as the source states them, for the method shown. Binding calls can cover weak binding; strength is not graded here. Sequences can lack the tags named with a protein.

The chains behind the UniProt entries cited, without tags or fusion partners. Where a name states a change or a piece, a line headed by the entry shows the natural chain unless it says otherwise.
UniProt Q13467: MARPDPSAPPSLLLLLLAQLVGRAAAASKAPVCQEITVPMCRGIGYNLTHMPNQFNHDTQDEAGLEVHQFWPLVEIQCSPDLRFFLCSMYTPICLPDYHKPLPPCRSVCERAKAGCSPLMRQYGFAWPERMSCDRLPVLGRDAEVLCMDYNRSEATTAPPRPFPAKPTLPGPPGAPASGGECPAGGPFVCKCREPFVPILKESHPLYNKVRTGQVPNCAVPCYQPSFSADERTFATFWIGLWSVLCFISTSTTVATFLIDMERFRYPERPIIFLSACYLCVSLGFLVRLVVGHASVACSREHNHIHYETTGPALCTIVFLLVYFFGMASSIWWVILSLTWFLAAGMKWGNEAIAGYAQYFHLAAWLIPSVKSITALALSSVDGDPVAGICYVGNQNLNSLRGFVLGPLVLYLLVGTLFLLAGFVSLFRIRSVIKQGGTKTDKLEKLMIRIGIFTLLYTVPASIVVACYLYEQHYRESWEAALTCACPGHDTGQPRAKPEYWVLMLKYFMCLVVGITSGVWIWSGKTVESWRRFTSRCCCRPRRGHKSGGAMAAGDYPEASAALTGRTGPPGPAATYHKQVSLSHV

Experiments:
[1] = target: SNAP-FZD5 with a mutation of I429 (human) (UniProt Q13467); experiment: FZD-dependent membrane translocation (plasma membrane recruitment) assay, confocal microscopy; GFP-tagged DVL2, DEP or PDZ co-expressed with SNAP-FZD5 (WT or mutant) in transfected cells (HeLa in the legends, HEK293T in the text), fixed and stained with α-SNAP; with or without Wnt3a-conditioned medium for 30 min
[2] = target: SNAP-FZD5 with a mutation of V432 (human) (UniProt Q13467); experiment: as above

binding [1]: binds
binding [2]: binds
B1: DEP_(414–507)-GFP, minimal DEP domain of DVL2 (domain or fragment, UniProt O14641 414-507)
chain: GRGLSVHTDMASVTKAMAAPESGLEVRDRMWLKITIPNAFLGSDVVDWLYHHVEGFPERREARKYASGLLKAGLIRHTVNKITFSEQCYYVFGD
